Data reported in article PMC6105217.

Chains of the proteins cited; added tags and fusions are not shown. Lines headed by an entry give the natural chain unless they say otherwise; changes in a name come on top.
UniProt Q97UK6: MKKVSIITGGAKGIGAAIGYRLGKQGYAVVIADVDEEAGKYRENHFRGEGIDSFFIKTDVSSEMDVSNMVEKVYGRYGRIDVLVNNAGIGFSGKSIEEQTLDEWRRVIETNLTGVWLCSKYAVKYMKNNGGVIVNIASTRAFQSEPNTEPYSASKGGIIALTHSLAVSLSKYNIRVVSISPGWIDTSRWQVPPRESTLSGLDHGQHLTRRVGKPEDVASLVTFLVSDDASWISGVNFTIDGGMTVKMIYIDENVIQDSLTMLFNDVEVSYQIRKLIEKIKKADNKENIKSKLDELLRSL
UniProt Q97VT8: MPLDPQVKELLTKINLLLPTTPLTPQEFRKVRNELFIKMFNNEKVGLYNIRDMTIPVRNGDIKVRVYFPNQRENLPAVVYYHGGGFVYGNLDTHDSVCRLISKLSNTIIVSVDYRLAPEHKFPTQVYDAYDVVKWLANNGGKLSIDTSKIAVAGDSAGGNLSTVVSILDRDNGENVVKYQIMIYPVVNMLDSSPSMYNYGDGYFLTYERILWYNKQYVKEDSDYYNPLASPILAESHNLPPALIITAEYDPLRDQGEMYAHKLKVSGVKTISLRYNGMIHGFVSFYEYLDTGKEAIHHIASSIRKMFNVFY
UniProt Q97ZQ0: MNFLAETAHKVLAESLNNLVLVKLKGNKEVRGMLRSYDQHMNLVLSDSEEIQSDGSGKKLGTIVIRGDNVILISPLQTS

Target: T1, N-His-aIF5A produced in Sso PH1-16 (pMJ05-N-His-aIF5A) (Sulfolobus solfataricus) (UniProt Q97ZE8)
T1 sequence (chain, modified, recognised by anti-hypusine antibodies (hypusine or deoxyhypusine)): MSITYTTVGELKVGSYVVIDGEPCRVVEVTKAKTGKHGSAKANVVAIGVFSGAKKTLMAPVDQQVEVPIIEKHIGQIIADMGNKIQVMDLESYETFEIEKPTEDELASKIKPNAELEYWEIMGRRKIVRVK
Test: affinity purification with mass spectrometry; N-His-aIF5A and co-purifying proteins from lysate of Sso PH1-16 (pMJ05-N-His-aIF5A) on Ni-NTA agarose; wash with 300 mM NaCl; whole eluate digested with trypsin, LC-MS/MS, label free quantification against a mock purification; enriched more than …

Row | binding | Substance
1 | binds | 3-Oxoacyl reductase (from UniProt Q97UK6)
2 | binds | Acetoacetyl-CoA thiolase
3 | binds | Carboxylesterase (from UniProt Q97VT8)
4 | binds | SmAP1 (from UniProt Q97ZQ0)
5 | binds | Succinate dehydrogenase

These are yes or no findings as the source states them, for the method shown. Binding seen in cells or lysates may run through a third protein. Here binding means that the protein was enriched with, or labelled near, the bait; the list need not be complete. Tags and fused reporters may be left off the sequences shown.
